No constants are given. Whether binding was seen depends on the method and setting. Some binding calls cover weakened binding; strength is not graded here.
Biological target: Rv2744c as bacterial two-hybrid fusion (pTZ1185: pKT25 containing Rv2744c; pTZ1182: pUT18 containing Rv2744c) (Mycobacterium tuberculosis) (UniProt P9WHP5)
Assay: two-hybrid

By UniProt entry, the sequences of proteins in these tests, tags left out.
UniProt P9WHP5: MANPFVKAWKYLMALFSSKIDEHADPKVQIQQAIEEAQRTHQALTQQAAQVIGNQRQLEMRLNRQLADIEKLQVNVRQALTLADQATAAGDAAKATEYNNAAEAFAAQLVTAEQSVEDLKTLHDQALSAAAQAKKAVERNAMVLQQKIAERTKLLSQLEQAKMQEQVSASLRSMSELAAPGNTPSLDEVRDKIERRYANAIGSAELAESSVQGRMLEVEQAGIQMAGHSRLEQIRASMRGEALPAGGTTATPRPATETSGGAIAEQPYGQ

“Rv2744c as bacterial two-hybrid fusion (pTZ1185: pKT25 containing Rv2744c; pTZ1182: pUT18 containing Rv2744c) (from UniProt P9WHP5 1-270)” was tested, and the binding was “binds”.

Reference: publication PMC3062566
